Earlier results as cited in patent US10590063B2, “Compositions and methods for the treatment of fatty acid metabolism disorders” (The Children's Hospital of Philadelphia, priority 2015, dated 2020).
For at least one compound, name, drawing or mass did not settle the structure.

Test system: patients with VLCAD deficiency
Settings: as a solo agent; cited from earlier work

CC(C)(Oc1ccc(CCNC(=O)c2ccc(Cl)cc2)cc1)C(=O)O [bezafibrate]
clinical symptoms or fatty acid oxidation during exercise: did not improve clinical symptoms or fatty acid oxidation during exercise
